These are yes or no findings as the source states them, for the method shown. Binding seen in cells or lysates may run through a third protein. These calls come from enrichment with a bait or labelling near it, and not all partners need be listed.
T1: mouse Nucleoredoxin Cys208Ser (mouse) (UniProt P97346)
T1 sequence: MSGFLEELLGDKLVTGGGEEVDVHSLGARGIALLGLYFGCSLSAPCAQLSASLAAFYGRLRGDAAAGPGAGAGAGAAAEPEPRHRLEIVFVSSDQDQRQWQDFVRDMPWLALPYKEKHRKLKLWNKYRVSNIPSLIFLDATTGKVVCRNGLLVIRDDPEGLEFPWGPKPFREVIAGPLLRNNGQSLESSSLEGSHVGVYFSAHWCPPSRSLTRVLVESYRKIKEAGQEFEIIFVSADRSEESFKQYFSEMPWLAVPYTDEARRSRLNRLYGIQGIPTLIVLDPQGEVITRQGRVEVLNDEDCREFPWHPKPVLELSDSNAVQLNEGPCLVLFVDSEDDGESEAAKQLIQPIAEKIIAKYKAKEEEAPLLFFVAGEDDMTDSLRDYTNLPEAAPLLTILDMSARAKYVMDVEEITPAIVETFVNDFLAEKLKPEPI

Protein sequences, listed by entry. Tags and fused reporters are not part of them.
UniProt P18760: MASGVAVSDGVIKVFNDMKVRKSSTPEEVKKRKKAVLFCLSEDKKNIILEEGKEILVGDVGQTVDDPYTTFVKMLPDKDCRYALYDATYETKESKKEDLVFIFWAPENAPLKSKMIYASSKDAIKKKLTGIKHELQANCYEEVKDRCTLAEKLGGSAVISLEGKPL
UniProt P50247: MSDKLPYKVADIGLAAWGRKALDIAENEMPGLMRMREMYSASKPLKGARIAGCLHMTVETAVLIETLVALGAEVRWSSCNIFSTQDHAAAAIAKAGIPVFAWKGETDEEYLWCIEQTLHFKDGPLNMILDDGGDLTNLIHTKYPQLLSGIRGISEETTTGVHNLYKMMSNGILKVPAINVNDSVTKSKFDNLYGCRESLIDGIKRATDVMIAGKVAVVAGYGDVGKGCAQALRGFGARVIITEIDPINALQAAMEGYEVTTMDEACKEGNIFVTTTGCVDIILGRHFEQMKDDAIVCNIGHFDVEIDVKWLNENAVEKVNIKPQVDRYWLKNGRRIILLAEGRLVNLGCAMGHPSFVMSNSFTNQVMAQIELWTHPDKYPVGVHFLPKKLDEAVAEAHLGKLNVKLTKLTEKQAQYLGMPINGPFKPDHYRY
UniProt P70288: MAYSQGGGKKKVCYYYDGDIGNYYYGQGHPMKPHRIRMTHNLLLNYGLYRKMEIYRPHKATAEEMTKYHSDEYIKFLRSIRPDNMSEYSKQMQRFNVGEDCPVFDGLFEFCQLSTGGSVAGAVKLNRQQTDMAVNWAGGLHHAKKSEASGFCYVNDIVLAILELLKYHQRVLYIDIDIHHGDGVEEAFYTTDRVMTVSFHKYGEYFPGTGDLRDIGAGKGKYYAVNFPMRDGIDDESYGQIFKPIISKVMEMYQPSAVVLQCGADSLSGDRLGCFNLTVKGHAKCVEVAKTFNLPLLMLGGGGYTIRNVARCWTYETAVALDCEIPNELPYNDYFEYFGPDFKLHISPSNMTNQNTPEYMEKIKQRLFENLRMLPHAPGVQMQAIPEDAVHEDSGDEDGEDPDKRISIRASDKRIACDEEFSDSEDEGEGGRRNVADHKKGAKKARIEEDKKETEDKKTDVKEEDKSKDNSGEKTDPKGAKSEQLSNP
UniProt Q8BGQ7: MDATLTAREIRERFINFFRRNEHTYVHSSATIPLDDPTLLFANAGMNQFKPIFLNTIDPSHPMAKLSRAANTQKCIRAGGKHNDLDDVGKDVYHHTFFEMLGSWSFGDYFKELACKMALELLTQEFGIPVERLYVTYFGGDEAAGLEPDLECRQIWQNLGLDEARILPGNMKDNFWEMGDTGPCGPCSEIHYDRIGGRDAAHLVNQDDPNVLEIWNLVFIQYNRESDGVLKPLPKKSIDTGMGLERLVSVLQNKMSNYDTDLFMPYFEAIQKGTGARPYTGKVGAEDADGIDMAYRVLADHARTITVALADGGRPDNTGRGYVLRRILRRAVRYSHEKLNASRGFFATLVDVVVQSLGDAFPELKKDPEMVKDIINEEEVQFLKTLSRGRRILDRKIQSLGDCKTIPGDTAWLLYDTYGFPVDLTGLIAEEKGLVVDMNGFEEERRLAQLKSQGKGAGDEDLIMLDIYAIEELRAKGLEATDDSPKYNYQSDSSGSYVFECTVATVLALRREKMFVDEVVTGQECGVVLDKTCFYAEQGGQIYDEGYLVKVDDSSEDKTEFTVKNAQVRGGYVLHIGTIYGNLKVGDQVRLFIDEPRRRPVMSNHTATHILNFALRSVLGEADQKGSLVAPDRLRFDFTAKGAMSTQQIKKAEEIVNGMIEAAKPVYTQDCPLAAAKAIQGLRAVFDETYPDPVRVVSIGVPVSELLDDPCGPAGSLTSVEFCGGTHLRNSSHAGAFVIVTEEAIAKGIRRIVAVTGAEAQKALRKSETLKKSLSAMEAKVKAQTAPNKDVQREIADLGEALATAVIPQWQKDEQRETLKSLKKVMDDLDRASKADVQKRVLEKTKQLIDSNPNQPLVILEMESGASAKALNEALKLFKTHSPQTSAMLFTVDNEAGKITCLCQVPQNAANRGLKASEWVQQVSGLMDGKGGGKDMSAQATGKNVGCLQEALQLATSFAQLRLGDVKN
UniProt O88447: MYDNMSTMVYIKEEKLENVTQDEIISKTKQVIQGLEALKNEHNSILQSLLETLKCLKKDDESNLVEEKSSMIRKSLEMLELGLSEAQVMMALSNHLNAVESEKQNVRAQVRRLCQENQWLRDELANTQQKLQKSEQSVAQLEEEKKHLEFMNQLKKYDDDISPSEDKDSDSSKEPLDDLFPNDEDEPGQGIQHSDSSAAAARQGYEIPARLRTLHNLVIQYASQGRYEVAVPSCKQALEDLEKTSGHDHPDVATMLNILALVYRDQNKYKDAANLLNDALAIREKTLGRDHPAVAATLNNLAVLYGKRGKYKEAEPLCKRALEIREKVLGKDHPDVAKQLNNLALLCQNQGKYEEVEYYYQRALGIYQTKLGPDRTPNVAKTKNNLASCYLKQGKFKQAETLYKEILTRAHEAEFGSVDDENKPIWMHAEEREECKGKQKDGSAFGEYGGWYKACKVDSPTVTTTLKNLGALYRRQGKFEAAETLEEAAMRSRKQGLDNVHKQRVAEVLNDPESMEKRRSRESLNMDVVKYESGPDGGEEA
UniProt P62874: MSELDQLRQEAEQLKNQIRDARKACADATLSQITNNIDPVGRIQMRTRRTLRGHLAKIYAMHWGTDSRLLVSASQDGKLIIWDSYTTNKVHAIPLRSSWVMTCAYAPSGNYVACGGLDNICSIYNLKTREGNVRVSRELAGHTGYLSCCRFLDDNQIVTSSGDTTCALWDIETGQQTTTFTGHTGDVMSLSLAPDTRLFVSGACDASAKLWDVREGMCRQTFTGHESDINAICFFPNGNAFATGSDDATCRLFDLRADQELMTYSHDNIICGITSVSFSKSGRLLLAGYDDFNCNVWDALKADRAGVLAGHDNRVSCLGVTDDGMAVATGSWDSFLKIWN
UniProt P63101: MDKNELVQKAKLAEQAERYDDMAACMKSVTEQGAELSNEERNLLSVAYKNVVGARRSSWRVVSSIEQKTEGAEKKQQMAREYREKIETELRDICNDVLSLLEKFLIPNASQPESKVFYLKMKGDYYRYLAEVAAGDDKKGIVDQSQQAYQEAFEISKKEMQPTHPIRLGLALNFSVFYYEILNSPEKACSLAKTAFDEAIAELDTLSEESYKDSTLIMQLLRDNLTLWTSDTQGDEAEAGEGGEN
UniProt P17183: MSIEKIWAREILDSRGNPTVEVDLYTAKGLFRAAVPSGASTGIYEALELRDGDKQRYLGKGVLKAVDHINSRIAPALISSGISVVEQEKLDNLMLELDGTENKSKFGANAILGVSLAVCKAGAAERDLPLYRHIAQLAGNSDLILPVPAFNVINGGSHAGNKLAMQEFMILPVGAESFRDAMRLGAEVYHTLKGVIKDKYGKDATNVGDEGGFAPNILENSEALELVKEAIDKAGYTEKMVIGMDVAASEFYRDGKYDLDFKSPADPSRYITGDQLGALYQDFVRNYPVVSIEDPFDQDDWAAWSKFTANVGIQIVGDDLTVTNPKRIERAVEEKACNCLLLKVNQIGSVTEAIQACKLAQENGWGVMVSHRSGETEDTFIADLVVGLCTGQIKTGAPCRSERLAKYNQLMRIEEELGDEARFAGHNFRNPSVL
UniProt P05201: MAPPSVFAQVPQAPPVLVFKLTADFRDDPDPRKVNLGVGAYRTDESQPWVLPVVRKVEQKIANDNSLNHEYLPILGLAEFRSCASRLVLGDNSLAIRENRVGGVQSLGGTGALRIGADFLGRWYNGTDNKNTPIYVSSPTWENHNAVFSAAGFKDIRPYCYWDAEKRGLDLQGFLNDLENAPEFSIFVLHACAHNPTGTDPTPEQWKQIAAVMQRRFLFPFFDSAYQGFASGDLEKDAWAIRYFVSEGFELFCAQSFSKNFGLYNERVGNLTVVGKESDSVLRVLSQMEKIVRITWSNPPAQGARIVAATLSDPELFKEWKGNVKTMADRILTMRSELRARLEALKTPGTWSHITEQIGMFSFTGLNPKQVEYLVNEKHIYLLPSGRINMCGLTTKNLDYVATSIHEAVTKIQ
UniProt P56399: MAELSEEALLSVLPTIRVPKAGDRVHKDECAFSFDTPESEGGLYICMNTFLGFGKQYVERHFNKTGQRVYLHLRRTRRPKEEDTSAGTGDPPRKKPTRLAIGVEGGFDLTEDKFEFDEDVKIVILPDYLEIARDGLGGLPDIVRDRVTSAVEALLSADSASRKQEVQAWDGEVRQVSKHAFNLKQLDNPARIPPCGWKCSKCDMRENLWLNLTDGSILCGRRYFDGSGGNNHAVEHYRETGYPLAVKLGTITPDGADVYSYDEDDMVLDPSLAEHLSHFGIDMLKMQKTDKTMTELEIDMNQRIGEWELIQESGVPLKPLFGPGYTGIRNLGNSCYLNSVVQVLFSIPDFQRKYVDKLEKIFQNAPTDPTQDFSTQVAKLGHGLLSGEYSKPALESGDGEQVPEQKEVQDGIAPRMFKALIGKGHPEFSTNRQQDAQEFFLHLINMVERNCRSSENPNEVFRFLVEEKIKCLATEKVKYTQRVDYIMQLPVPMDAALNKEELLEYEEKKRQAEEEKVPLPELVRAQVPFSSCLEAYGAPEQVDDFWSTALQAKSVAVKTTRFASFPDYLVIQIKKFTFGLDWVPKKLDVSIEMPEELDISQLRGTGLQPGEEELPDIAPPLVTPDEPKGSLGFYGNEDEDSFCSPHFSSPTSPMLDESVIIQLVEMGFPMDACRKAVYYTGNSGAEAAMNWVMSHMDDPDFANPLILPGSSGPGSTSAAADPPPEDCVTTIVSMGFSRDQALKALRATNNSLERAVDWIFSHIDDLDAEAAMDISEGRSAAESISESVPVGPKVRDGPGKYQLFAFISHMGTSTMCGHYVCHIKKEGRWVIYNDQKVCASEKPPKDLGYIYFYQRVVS
UniProt Q9CWS0: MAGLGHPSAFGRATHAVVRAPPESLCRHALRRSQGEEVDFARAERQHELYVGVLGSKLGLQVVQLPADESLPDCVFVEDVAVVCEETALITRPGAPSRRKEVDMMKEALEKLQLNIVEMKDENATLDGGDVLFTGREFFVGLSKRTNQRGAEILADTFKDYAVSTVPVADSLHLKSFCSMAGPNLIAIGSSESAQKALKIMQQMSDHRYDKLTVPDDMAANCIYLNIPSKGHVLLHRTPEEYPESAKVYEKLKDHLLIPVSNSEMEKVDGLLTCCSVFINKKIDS
UniProt P52480: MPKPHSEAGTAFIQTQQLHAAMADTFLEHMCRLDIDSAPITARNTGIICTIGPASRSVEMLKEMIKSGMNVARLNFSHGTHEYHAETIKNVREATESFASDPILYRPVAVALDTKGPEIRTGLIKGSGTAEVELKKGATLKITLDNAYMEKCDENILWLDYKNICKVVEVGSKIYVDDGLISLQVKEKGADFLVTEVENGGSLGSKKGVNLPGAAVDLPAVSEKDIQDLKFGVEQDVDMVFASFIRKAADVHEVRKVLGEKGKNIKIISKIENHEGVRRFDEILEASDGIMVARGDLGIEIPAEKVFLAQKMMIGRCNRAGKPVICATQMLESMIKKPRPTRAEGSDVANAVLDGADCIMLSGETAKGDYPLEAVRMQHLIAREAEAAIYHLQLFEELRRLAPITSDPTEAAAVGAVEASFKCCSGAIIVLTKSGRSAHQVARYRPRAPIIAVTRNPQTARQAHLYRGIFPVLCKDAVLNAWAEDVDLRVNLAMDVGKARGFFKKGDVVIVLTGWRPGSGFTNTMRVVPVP


molecular target: T1, mouse Nucleoredoxin Cys208Ser (mouse); experiment: affinity purification with mass spectrometry; intermediate trapping: mNrx Cys208Ser coupled to CNBr-activated sepharose and reduced with 10 mM DTT; clarified SH-SY5Y lysate (NP40 lysis buffer) 2 h at 4°C; washed with 100 mM Tris, 300 mM NaCl, pH 8 and TE buffer; trapped proteins (mixed disulfide) eluted with 10 mM DTT and 10 mM TCEP; only the target purified

| Molecule | binding |
| --- | --- |
| Fructose-bisphosphate aldolase A (protein, UniProt P04075 1-364) MPYQYPALTPEQKKELSDIAHRIVAPGKGILAADESTGSIAKRLQSIGTENTEENRRFYRQLLLTADDRVNPCIGGVILFHETLYQKADDGRPFPQVIKSKGGVVGIKVDKGVVPLAGTNGETTTQGLDGLSERCAQYKKDGADFAKWRCVLKIGEHTPSALAIMENANVLARYASICQQNGIVPIVEPEILPDGDHDLKRCQYVTEKVLAAVYKALSDHHIYLEGTLLKPNMVTPGHACTQKFSHEEIAMATVTALRRTVPPAVTGITFLSGGQSEEEASINLNAINKCPLLKPWALTFSYGRALQASALKAWGGKKENLKAAQEEYVKRALANSLACQGKYTPSGQAGAAASESLFVSNHAY | binds |
| Thioredoxin reductase 1, cytoplasmic (protein, UniProt Q16881 1-649) MGCAEGKAVAAAAPTELQTKGKNGDGRRRSAKDHHPGKTLPENPAGFTSTATADSRALLQAYIDGHSVVIFSRSTCTRCTEVKKLFKSLCVPYFVLELDQTEDGRALEGTLSELAAETDLPVVFVKQRKIGGHGPTLKAYQEGRLQKLLKMNGPEDLPKSYDYDLIIIGGGSGGLAAAKEAAQYGKKVMVLDFVTPTPLGTRWGLGGTCVNVGCIPKKLMHQAALLGQALQDSRNYGWKVEETVKHDWDRMIEAVQNHIGSLNWGYRVALREKKVVYENAYGQFIGPHRIKATNNKGKEKIYSAERFLIATGERPRYLGIPGDKEYCISSDDLFSLPYCPGKTLVVGASYVALECAGFLAGIGLDVTVMVRSILLRGFDQDMANKIGEHMEEHGIKFIRQFVPIKVEQIEAGTPGRLRVVAQSTNSEEIIEGEYNTVMLAIGRDACTRKIGLETVGVKINEKTGKIPVTDEEQTNVPYIYAIGDILEDKVELTPVAIQAGRLLAQRLYAGSTVKCDYENVPTTVFTPLEYGACGLSEEKAVEKFGEENIEVYHSYFWPLEWTIPSRDNNKCYAKIICNTKDNERVVGFHVLGPNAGEVTQGFAAALKCGLTKKQLDSTIGIHPVCAEVFTTLSVTKRSGASILQAGCUG | binds |

Continued, values first:

| binding | Molecule |
| --- | --- |
| binds | Coatomer subunit delta (protein, UniProt P48444 1-511) MVLLAAAVCTKAGKAIVSRQFVEMTRTRIEGLLAAFPKLMNTGKQHTFVETESVRYVYQPMEKLYMVLITTKNSNILEDLETLRLFSRVIPEYCRALEENEISEHCFDLIFAFDEIVALGYRENVNLAQIRTFTEMDSHEEKVFRAVRETQEREAKAEMRRKAKELQQARRDAERQGKKAPGFGGFGSSAVSGGSTAAMITETIIETDKPKVAPAPARPSGPSKALKLGAKGKEVDNFVDKLKSEGETIMSSSMGKRTSEATKMHAPPINMESVHMKIEEKITLTCGRDGGLQNMELHGMIMLRISDDKYGRIRLHVENEDKKGVQLQTHPNVDKKLFTAESLIGLKNPEKSFPVNSDVGVLKWRLQTTEESFIPLTINCWPSESGNGCDVNIEYELQEDNLELNDVVITIPLPSGVGAPVIGEIDGEYRHDSRRNTLEWCLPVIDAKNKSGSLEFSIAGQPNDFFPVQVSFVSKKNYCNIQVTKVTQVDGNSPVRFSTETTFLVDKYEIL |
| binds | Branched-chain amino acid aminotransferase, cytosolic (protein, UniProt P54687 1-386) MKDCSNGCSAECTGEGGSKEVVGTFKAKDLIVTPATILKEKPDPNNLVFGTVFTDHMLTVEWSSEFGWEKPHIKPLQNLSLHPGSSALHYAVELFEGLKAFRGVDNKIRLFQPNLNMDRMYRSAVRATLPVFDKEELLECIQQLVKLDQEWVPYSTSASLYIRPTFIGTEPSLGVKKPTKALLFVLLSPVGPYFSSGTFNPVSLWANPKYVRAWKGGTGDCKMGGNYGSSLFAQCEAVDNGCQQVLWLYGEDHQITEVGTMNLFLYWINEDGEEELATPPLDGIILPGVTRRCILDLAHQWGEFKVSERYLTMDDLTTALEGNRVREMFGSGTACVVCPVSDILYKGETIHIPTMENGPKLASRILSKLTDIQYGREESDWTIVLS |
| binds | Transaldolase (protein, UniProt P37837 1-337) MSSSPVKRQRMESALDQLKQFTTVVADTGDFHAIDEYKPQDATTNPSLILAAAQMPAYQELVEEAIAYGRKLGGSQEDQIKNAIDKLFVLFGAEILKKIPGRVSTEVDARLSFDKDAMVARARRLIELYKEAGISKDRILIKLSSTWEGIQAGKELEEQHGIHCNMTLLFSFAQAVACAEAGVTLISPFVGRILDWHVANTDKKSYEPLEDPGVKSVTKIYNYYKKFSYKTIVMGASFRNTGEIKALAGCDFLTISPKLLGELLQDNAKLVPVLSAKAAQASDLEKIHLDEKSFRWLHNEDQMAVEKLSDGIRKFAADAVKLERMLTERMFNAENGK |
| binds | T-Complex protein 1 subunit beta (protein, UniProt P78371 1-535) MASLSLAPVNIFKAGADEERAETARLTSFIGAIAIGDLVKSTLGPKGMDKILLSSGRDASLMVTNDGATILKNIGVDNPAAKVLVDMSRVQDDEVGDGTTSVTVLAAELLREAESLIAKKIHPQTIIAGWREATKAAREALLSSAVDHGSDEVKFRQDLMNIAGTTLSSKLLTHHKDHFTKLAVEAVLRLKGSGNLEAIHIIKKLGGSLADSYLDEGFLLDKKIGVNQPKRIENAKILIANTGMDTDKIKIFGSRVRVDSTAKVAEIEHAEKEKMKEKVERILKHGINCFINRQLIYNYPEQLFGAAGVMAIEHADFAGVERLALVTGGEIASTFDHPELVKLGSCKLIEEVMIGEDKLIHFSGVALGEACTIVLRGATQQILDEAERSLHDALCVLAQTVKDSRTVYGGGCSEMLMAHAVTQLANRTPGKEAVAMESYAKALRMLPTIIADNAGYDSADLVAQLRAAHSEGNTTAGLDMREGTIGDMAILGITESFQVKRQVLLSAAEAAEVILRVDNIIKAAPRKRVPDHHPC |
| binds | Septin-7 (protein, UniProt Q16181 1-437) MSVSARSAAAEERSVNSSTMVAQQKNLEGYVGFANLPNQVYRKSVKRGFEFTLMVVGESGLGKSTLINSLFLTDLYSPEYPGPSHRIKKTVQVEQSKVLIKEGGVQLLLTIVDTPGFGDAVDNSNCWQPVIDYIDSKFEDYLNAESRVNRRQMPDNRVQCCLYFIAPSGHGLKPLDIEFMKRLHEKVNIIPLIAKADTLTPEECQQFKKQIMKEIQEHKIKIYEFPETDDEEENKLVKKIKDRLPLAVVGSNTIIEVNGKRVRGRQYPWGVAEVENGEHCDFTILRNMLIRTHMQDLKDVTNNVHYENYRSRKLAAVTYNGVDNNKNKGQLTKSPLAQMEEERREHVAKMKKMEMEMEQVFEMKVKEKVQKLKDSEAELQRRHEQMKKNLEAQHKELEEKRRQFEDEKANWEAQQRILEQQNSSRTLEKNKKKGKIF |
| binds | Synaptic vesicle membrane protein VAT-1 homolog (protein, UniProt Q99536 1-393) MSDEREVAEAATGEDASSPPPKTEAASDPQHPAASEGAAAAAASPPLLRCLVLTGFGGYDKVKLQSRPAAPPAPGPGQLTLRLRACGLNFADLMARQGLYDRLPPLPVTPGMEGAGVVIAVGEGVSDRKAGDRVMVLNRSGMWQEEVTVPSVQTFLIPEAMTFEEAAALLVNYITAYMVLFDFGNLQPGHSVLVHMAAGGVGMAAVQLCRTVENVTVFGTASASKHEALKENGVTHPIDYHTTDYVDEIKKISPKGVDIVMDPLGGSDTAKGYNLLKPMGKVVTYGMANLLTGPKRNLMALARTWWNQFSVTALQLLQANRAVCGFHLGYLDGEVELVSGVVARLLALYNQGHIKPHIDSVWPFEKVADAMKQMQEKKNVGKVLLVPGPEKEN |

molecular target: T1, mouse Nucleoredoxin Cys208Ser (mouse); experiment: affinity purification with mass spectrometry; intermediate trapping: mNrx Cys208Ser coupled to CNBr-activated sepharose and reduced with 10 mM DTT; mouse brain extract (Black 6 C57J mice, NP40 lysis buffer) 2 h at 4°C; washed with 100 mM Tris, 300 mM NaCl, pH 8 and TE buffer; trapped proteins (mixed disulfide) eluted with 10 mM DTT and 10 mM TCEP; only the target purified

| Molecule | binding |
| --- | --- |
| Cofilin-1 (mouse) (from UniProt P18760 1-166) | binds |
| Adenosylhomocysteinase (mouse) (from UniProt P50247 1-432) | binds |
| Histone deacetylase 2 (mouse) (from UniProt P70288 1-488) | binds |
| Alanine-tRNA ligase, cytoplasmic (mouse) (from UniProt Q8BGQ7 1-968) | binds |
| Kinesin light chain 1 (mouse) (from UniProt O88447 1-541) | binds |
| Guanine nucleotide-binding protein (mouse) (from UniProt P62874 1-340) | binds |
| 14-3-3 protein zeta/delta (protein kinase C inhibitor protein 1) (mouse) (from UniProt P63101 1-245) | binds |

The remaining lines, values ahead:

| binding | Molecule |
| --- | --- |
| binds | Gamma-enolase (mouse) (from UniProt P17183 1-434) |
| binds | Aspartate aminotransferase, cytoplasmic (mouse) (from UniProt P05201 1-413) |
| binds | Ubiquitin carboxyl-terminal hydrolase 5 (mouse) (from UniProt P56399 1-858) |
| binds | N(G),N(G)-Dimethylarginine dimethylaminohydrolase 1 (mouse) (from UniProt Q9CWS0 1-285) |
| binds | Pyruvate kinase (mouse) (from UniProt P52480 1-531) |
| binds | Inosine-5′-monophosphate dehydrogenase 2 (mouse) (from UniProt P24547 1-514) |
| binds | Tyrosine-tRNA ligase, cytoplasmic (mouse) (protein, UniProt Q91WQ3 1-528) MGDAPSPEEKLHLITRNLQEVLGEEKLKEILKERELKVYWGTATTGKPHVAYFVPMSKIADFLKAGCEVTILFADLHAYLDNMKAPWELLELRTSYYENVIKAMLESIGVPLEKLKFIKGTDYQLSKEYTLDVYRLSSVVTQHDAKKAGAEVVKQVEHPLLSGLLYPGLQALDEEYLKVDAQFGGVDQRKIFTFAEKYLPALGYSKRVHLMNPMVPGLTGSKMSSSEEESKIDLLDRKEDVKKKLKKAFCEPGNVENNGVLSFIKHVLFPLKSEFVILRDEKWGGNKTYTVYLELEKDFAAEVVHPGDLKNSVEVALNKLLDPIREKFNTPALKKLASAAYPDPSKQKPPAKGPAKNSEPEEVIPSRLDIRVGKILSVEKHPDADSLYVEKIDVGEAEPRTVVSGLVQFVPKEELQDRLVVVLCNLKPQKMRGVDSQGMLLCASVEGVSRQVEPLDPPAGSAPGERVFVQGYEKGQPDEELKPKKKVFEKLQADFKISEECIAQWKQTNFMTKLGFVSCKSLKGGNIS |
